In the supplement of paper PMC10849652:
This is one part of the list.

By UniProt entry, the sequences of proteins in these tests, tags left out. Where a name states a change or a piece, a line headed by the entry shows the natural chain unless it says otherwise.
UniProt Q8IX12: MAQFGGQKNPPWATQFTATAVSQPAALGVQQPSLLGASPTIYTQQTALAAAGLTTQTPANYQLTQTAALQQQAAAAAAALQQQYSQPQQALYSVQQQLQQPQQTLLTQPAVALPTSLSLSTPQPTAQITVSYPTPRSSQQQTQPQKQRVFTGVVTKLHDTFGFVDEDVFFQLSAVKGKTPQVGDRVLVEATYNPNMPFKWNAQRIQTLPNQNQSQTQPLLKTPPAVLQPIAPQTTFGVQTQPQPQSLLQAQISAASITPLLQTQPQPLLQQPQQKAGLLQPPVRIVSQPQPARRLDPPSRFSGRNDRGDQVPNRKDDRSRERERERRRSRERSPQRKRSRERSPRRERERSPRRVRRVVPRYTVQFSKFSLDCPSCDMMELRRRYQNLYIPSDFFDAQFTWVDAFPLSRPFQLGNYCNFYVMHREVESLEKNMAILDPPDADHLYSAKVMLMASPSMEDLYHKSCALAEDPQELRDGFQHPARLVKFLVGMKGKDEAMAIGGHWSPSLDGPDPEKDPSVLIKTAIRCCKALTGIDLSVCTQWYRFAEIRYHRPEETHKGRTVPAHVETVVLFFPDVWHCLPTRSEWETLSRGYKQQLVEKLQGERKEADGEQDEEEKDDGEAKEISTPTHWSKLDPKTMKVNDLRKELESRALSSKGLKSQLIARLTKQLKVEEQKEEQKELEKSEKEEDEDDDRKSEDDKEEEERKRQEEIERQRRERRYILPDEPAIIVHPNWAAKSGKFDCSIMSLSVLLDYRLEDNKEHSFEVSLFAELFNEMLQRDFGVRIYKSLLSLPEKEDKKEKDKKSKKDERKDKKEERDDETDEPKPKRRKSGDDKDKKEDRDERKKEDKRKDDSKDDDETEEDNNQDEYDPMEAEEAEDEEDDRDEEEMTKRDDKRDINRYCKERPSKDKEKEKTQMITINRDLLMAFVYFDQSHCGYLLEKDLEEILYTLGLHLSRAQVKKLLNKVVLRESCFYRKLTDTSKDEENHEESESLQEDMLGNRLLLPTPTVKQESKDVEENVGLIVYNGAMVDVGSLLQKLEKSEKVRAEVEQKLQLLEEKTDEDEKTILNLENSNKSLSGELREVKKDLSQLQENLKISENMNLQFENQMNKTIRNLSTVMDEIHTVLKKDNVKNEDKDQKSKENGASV
UniProt O14618: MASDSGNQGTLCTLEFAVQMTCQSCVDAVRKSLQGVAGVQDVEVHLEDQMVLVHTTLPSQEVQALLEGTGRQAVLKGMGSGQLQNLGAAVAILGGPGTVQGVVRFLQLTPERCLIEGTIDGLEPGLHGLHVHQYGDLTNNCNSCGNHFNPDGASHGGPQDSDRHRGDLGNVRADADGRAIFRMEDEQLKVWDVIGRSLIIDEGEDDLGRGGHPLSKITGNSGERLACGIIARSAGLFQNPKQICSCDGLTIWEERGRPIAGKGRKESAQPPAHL
UniProt Q16204: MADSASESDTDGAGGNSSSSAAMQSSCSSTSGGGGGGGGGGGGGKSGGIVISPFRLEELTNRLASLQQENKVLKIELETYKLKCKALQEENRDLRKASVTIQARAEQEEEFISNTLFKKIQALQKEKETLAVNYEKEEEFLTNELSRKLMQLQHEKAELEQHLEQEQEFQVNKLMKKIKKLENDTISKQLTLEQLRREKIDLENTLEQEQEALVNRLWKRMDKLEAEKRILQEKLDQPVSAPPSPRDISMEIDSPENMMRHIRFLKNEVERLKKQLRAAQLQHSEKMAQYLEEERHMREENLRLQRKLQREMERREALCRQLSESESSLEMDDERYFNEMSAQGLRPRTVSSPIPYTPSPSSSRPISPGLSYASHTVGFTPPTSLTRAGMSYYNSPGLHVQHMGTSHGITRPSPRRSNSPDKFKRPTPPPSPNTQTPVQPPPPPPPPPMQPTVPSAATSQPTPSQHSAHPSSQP
UniProt Q9Y2V2: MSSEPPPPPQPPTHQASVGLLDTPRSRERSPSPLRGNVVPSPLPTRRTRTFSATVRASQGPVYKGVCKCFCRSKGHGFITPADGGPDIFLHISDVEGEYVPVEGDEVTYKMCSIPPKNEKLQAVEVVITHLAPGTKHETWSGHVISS
UniProt Q13185: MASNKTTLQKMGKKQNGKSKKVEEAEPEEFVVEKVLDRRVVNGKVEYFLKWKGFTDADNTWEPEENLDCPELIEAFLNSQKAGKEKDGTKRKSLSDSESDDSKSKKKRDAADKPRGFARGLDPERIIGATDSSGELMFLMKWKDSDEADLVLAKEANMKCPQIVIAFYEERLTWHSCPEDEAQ
UniProt P55211: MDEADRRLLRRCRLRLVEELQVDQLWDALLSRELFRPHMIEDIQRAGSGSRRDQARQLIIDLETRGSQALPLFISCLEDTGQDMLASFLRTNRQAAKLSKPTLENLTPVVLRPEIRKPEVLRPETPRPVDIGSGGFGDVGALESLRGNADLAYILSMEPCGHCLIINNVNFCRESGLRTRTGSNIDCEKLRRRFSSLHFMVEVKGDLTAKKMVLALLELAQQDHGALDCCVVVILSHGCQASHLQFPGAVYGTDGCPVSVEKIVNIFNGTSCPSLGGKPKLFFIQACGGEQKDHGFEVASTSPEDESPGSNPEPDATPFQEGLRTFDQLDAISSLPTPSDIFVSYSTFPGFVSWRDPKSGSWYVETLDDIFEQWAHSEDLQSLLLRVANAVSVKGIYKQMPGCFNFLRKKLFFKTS
UniProt Q4VC31: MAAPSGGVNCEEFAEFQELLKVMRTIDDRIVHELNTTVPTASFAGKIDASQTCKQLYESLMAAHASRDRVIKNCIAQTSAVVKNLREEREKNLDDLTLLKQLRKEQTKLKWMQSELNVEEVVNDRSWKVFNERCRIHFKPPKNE
UniProt Q86WR0: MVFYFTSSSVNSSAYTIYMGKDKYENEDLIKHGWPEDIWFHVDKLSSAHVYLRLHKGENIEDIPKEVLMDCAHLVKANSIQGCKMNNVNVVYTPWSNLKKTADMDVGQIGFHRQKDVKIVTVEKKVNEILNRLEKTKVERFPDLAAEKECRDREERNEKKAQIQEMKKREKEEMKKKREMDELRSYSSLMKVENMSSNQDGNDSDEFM
UniProt Q3V6T2: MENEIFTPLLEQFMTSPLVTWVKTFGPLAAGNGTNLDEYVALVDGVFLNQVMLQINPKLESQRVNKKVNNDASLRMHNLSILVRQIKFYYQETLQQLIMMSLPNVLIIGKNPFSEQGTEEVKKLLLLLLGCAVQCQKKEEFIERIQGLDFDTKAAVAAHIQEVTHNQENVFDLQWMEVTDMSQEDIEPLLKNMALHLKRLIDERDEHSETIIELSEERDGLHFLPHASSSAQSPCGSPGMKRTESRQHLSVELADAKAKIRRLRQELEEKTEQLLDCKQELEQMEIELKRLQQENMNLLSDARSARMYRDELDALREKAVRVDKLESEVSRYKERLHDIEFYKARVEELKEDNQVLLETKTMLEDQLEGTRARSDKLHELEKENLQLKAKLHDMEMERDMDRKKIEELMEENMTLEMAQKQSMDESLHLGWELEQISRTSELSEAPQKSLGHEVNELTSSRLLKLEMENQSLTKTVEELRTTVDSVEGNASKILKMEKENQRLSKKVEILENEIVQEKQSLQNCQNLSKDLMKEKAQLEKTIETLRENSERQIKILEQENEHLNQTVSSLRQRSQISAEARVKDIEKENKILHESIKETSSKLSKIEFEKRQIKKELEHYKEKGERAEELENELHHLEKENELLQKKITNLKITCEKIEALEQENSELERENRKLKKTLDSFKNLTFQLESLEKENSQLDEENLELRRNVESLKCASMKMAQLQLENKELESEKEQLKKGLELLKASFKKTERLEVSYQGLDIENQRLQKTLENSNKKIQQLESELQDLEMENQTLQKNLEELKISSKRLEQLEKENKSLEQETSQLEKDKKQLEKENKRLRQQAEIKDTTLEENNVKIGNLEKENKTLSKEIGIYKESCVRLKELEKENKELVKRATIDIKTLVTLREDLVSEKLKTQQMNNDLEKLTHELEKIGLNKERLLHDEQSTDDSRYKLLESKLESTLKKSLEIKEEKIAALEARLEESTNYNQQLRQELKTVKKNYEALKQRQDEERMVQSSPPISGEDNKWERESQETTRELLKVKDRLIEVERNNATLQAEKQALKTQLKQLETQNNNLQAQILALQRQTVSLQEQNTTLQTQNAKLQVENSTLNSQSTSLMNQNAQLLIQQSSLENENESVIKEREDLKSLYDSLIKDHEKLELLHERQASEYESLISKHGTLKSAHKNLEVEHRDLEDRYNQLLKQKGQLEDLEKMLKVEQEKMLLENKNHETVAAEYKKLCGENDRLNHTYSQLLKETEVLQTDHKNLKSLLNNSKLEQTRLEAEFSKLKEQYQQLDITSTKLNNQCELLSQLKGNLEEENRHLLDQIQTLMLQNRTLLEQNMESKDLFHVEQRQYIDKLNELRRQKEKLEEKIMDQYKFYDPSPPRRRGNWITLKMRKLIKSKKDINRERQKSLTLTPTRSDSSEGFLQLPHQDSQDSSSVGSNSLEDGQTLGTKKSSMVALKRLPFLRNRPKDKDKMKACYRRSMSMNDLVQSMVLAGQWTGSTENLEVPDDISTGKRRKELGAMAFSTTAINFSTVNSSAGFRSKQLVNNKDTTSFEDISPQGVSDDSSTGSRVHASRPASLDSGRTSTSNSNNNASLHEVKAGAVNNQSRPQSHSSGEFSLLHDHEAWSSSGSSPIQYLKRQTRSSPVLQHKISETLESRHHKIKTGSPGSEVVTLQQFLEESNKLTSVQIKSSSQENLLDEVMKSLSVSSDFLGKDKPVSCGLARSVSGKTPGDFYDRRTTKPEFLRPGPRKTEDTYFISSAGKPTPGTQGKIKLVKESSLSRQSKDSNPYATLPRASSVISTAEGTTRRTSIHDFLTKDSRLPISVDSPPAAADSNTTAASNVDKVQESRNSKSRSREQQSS
UniProt Q96F63: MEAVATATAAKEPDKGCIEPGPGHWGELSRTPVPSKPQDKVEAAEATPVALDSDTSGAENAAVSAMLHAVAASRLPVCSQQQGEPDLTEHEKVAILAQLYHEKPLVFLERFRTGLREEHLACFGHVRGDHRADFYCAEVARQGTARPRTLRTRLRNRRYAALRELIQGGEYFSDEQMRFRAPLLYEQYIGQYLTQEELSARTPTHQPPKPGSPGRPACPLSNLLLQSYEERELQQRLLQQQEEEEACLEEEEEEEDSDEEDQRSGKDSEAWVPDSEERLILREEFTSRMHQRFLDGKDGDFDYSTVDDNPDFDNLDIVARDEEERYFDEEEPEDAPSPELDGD
UniProt Q13191, whole entry, looked up: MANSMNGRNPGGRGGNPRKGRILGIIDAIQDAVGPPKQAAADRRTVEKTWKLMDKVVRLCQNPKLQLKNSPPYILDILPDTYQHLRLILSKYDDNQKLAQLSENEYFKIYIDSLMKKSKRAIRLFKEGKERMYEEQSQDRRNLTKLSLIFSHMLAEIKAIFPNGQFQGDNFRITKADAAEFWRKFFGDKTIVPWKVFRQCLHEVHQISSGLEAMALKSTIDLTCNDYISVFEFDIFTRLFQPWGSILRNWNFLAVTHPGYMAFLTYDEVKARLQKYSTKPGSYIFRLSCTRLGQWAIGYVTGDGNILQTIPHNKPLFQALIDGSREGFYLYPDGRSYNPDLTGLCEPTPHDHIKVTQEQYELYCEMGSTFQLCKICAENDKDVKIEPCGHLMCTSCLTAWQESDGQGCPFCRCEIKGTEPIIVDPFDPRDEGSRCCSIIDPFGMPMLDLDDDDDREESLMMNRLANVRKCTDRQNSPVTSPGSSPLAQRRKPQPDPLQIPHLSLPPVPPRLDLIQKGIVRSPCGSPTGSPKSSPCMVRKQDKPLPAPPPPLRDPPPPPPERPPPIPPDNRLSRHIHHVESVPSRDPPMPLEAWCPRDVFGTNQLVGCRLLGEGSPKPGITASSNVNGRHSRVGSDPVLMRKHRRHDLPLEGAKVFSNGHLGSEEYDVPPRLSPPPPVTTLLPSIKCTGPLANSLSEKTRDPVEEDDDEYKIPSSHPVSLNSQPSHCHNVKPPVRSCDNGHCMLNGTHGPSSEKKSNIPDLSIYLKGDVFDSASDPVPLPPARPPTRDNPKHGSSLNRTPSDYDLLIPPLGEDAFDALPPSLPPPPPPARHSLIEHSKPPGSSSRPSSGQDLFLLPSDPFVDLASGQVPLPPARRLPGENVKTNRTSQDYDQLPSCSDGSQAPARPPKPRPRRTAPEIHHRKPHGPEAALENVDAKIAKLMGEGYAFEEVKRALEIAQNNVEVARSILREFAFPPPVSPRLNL
UniProt Q6NZI2: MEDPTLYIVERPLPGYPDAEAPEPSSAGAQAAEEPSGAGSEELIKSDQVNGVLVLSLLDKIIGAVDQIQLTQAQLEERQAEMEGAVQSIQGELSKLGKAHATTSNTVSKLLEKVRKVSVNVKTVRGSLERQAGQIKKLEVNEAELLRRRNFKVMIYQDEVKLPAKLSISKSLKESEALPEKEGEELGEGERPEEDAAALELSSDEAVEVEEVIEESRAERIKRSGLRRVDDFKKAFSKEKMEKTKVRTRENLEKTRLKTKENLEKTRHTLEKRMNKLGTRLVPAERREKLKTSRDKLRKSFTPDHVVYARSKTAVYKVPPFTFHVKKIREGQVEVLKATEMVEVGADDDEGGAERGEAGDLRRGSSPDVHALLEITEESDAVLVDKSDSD

What follows are targets tested with O=C1NC(=O)C(c2cnc3ccccn23)=C1c1cn2c3c(cc(F)cc13)CN(C(=O)N1CCCCC1)CC2 (assay: log2 fold change, soluble protein after heating vs DMSO (PISA); higher = thermal stabilisation; K562 lysate, 10 uM; active = over 0.2 and 3.5 SD of the protein, either way, in both replicates (recomputed)).
Summary of the method: (§1)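 Quantification was by TMTpro 16plex LC-MS/MS with equalised channel sums, applied to the supernatant after 21,000xg for 90 min. Samples were crude K562 extract at 1 mg/mL protein in PBS pH 7.4 with 1 mM MgCl2, treated with 10 μM compound for 30 min, heated for 3 min across 48°C-58°C, pooled and brought to 0.5% NP-40 at 4°C. Values are log-two fold changes in thermal stability relative to solvent controls, from duplicates.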

log2 fold change, inactive:
CBWD5 (UniProt Q5RIA9) 0
CARS2 (UniProt Q9HA77) 0.057
CCAR1 (UniProt Q8IX12) -0.009
CCNDBP1 (UniProt O95273) 0.006
CCS (UniProt O14618) -0.017
CD151 (UniProt P48509) -0.024
CCDC6 (UniProt Q16204) 0.03
CCDC117 (UniProt Q8IWD4) -0.044
CCT5 (UniProt P48643) -0.019
CARHSP1 (UniProt Q9Y2V2) 0.056

What follows are targets tested with c1cn2cc(-c3ccc4cn[nH]c4c3)nc(Nc3ccc(N4CCOCC4)cc3)c2n1 [entospletinib] in the same assay as above.
Summary of the method: as §1

log2 fold change, inactive:
CD46 isoform 2 (UniProt P15529) 0.01
CCNB2 (UniProt O95067) 0.044
CBX3 (UniProt Q13185) 0.023
CCT2 (UniProt P78371) 0.016
CASP3 (UniProt P42574) -0.027
CCNB1 (UniProt P14635) -0.009
CAT (UniProt P04040) 0.009
CCT6A (UniProt P40227) 0.024
CASP9 (UniProt P55211) -0.002
CCDC58 (UniProt Q4VC31) -0.012
CD47 (UniProt Q08722) -0.022
CCNK isoform 4 (UniProt O75909) -0.002
CCDC12 (UniProt Q8WUD4) -0.032
CCDC93 (UniProt Q567U6) 0.026
CBX4 (UniProt O00257) 0.099
CCDC25 (UniProt Q86WR0) 0.009
CCDC88A (UniProt Q3V6T2) -0.01
CCDC88C (UniProt Q9P219) -0.157
CCDC22 (UniProt O60826) -0.021
CCDC97 (UniProt Q96F63) -0.085
CCNYL1 (UniProt Q8N7R7) -0.005
CBLB (UniProt Q13191) -0.034
CAVIN1 (UniProt Q6NZI2) -0.028
CBWD5 (UniProt Q5RIA9) -0.011
CARS2 (UniProt Q9HA77) -0.024
CCAR1 (UniProt Q8IX12) 0.001
CCNDBP1 (UniProt O95273) 0.006
CCS (UniProt O14618) -0.032
CD151 (UniProt P48509) 0.027
CCDC6 (UniProt Q16204) 0.001
CCDC117 (UniProt Q8IWD4) -0.031
CCT5 (UniProt P48643) 0.003
CARHSP1 (UniProt Q9Y2V2) -0.049
